Measured data: PubChem BioAssay AID1259308 (NCATS, 2017)
Aim: 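Knock-downs that increase output of a recombinant reporter protein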 (primary screen). System: human HEK293 embryonic kidney cells stably expressing firefly luciferase (HEK-CMV-Luc2-Hygro). Reagent: single siRNA against human genes, 0.8 pmol siRNA per well. Duration: 72 h. Measurement: 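Luciferase light (ONE-Glo) measured on one replicate plate set and viability (CellTiter-Glo) on the other, scaled to a negative control siRNA, with robust z-scores and luciferase per cell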. Direction: total luciferase, z-score: higher = more reporter protein produced. Call rule: 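Active when the median/MAD z-score for overall luciferase is greater than 3; a gene was taken forward for validation with new siRNAs if at least two of its three siRNAs passed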. Calls: active = raised luciferase; inactive = no rise.
Shown is one part, drawn at random, of about 59,000 reagents tested. About 1,510 of them (2.6%) were called active. 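Calls use total luciferase alone and ignore viability, so some active siRNAs may act by altering cell number.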 Entries without a mark were called inactive. The numbers tell different reagents against one gene apart. Not all columns of the deposit are shown.

no.	gene	reagent	total luciferase, z-score
1	RWDD2B (RWD domain containing 2B)	1	-0.23
2	RWDD2B (RWD domain containing 2B)	2	0.432
3	RWDD2B (RWD domain containing 2B)	3	-0.157
4	CASP1 (caspase 1)	1	-1.59
5	CASP1 (caspase 1)	2	-1.65
6	CASP1 (caspase 1)	3	-0.463
7	RHBDD3 (rhomboid domain containing 3)	1	-0.404
8	RHBDD3 (rhomboid domain containing 3)	2	1.3
9	RHBDD3 (rhomboid domain containing 3)	3	1.06
10	BAK1 (BCL2 antagonist/killer 1)	1	-0.471
11	BAK1 (BCL2 antagonist/killer 1)	2	0.64
12	BAK1 (BCL2 antagonist/killer 1)	3	-0.739
13	OOEP (oocyte expressed protein)	1	0.164
14	OOEP (oocyte expressed protein)	2	1.69
15	OOEP (oocyte expressed protein)	3	0.792
16	APMAP (adipocyte plasma membrane associated protein)	1	-1.1
17	APMAP (adipocyte plasma membrane associated protein)	2	0.154
18	APMAP (adipocyte plasma membrane associated protein)	3	2.04
19	SUGCT (succinyl-CoA:glutarate-CoA transferase)	1	0.483
20	SUGCT (succinyl-CoA:glutarate-CoA transferase)	2	0.755
21	SUGCT (succinyl-CoA:glutarate-CoA transferase)	3	0.231
22	METTL24 (methyltransferase like 24)	1	-0.574
23	METTL24 (methyltransferase like 24)	2	-0.0978
24	METTL24 (methyltransferase like 24)	3	2.92
25	PON1 (paraoxonase 1)	1	0.888
26	PON1 (paraoxonase 1)	2	-0.542
27	PON1 (paraoxonase 1)	3	0.1
28	KPNA1 (karyopherin subunit alpha 1)	1	1.67
29	KPNA1 (karyopherin subunit alpha 1)	2	-0.0846
30	KPNA1 (karyopherin subunit alpha 1)	3	0.908
31	CAMK2N1 (calcium/calmodulin dependent protein kinase II inhibitor 1)	1	-0.683
32	CAMK2N1 (calcium/calmodulin dependent protein kinase II inhibitor 1)	2	-0.257
33	CAMK2N1 (calcium/calmodulin dependent protein kinase II inhibitor 1)	3	1.07
34	WASHC2FP (WASHC2F, pseudogene)	1	0.492
35	WASHC2FP (WASHC2F, pseudogene)	2	1.18
36	WASHC2FP (WASHC2F, pseudogene)	3	3.63 (active)
37	RPS24P4 (ribosomal protein S24 pseudogene 4)	1	-0.334
38	RPS24P4 (ribosomal protein S24 pseudogene 4)	2	1.01
39	RPS24P4 (ribosomal protein S24 pseudogene 4)	3	-0.0677

6 consecutive reagents already listed, for reference:
no.	gene	reagent	total luciferase, z-score
16	APMAP (adipocyte plasma membrane associated protein)	1	-1.1
17	APMAP (adipocyte plasma membrane associated protein)	2	0.154
18	APMAP (adipocyte plasma membrane associated protein)	3	2.04
19	SUGCT (succinyl-CoA:glutarate-CoA transferase)	1	0.483
20	SUGCT (succinyl-CoA:glutarate-CoA transferase)	2	0.755
21	SUGCT (succinyl-CoA:glutarate-CoA transferase)	3	0.231
